Reference: patent US20060292140A1 (published 2006)
Results are given in words; binding and its absence hold for the method and conditions named. Binding can be weak; no strength is given.

What was measured:
[1] = target: lymphocytes from cat (species cross-reactivity study; antigen taken as cat α4β7 integrin) (cat); assay: flow cytometry on cat blood lymphocytes, 15 µg/ml
[2] = target: lymphocytes from dog (species cross-reactivity study; antigen taken as dog α4β7 integrin) (dog); assay: flow cytometry on dog blood lymphocytes, 15 µg/ml

- binding [1]: binds
- binding [2]: binds
B1: murine Act-1 monoclonal antibody (antibody, mouse IgG1, V domains shown)
VH: QVQLQQPGAELVKPGTSVKLSCKGYGYTFTSYWMHWVKQRPGQGLEWIGEIDPSESNTNYNQKFKGKATLTVDISSSTAYMQLSSLTSEDSAVYYCARGGYDGWDYAIDYWGQGTSVTVSS
VL: DVVVTQTPLSLPVSFGDQVSISCRSSQSLAKSYGNTYLSWYLHKPGQSPQLLIYGISNRFSGVPDRFSGSGSGTDFTLKISTIKPEDLGMYYCLQGTHQPYTFGGGTKLEIK
notes: Mouse IgG1/kappa from the Act-1 hybridoma; also called mouse Act-1; ACT-1 (murine)
